# Results: the supplement of paper PMC12595434, “Development of retinoid nuclear receptor pathway antagonists through targeting aldehyde dehydrogenase 1A3” (iScience, 2025)
# Chains of the proteins cited; added tags and fusions are not shown. Lines headed by an entry give the natural chain unless they say otherwise; changes in a name come on top.
# UniProt P98170, whole entry: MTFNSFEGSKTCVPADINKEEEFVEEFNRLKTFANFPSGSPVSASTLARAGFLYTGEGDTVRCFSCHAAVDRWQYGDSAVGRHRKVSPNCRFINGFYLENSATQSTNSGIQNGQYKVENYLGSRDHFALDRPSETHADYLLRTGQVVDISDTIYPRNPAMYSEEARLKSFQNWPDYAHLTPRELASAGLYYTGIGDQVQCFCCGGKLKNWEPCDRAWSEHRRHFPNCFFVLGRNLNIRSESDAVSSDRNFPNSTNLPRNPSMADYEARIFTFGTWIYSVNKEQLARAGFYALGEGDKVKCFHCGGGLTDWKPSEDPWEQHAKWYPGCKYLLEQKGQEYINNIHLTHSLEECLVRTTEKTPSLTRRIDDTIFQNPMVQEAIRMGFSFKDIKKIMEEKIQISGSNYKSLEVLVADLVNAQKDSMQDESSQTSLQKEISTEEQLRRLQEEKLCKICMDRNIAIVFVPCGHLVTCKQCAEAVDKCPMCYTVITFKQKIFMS
# UniProt Q01664: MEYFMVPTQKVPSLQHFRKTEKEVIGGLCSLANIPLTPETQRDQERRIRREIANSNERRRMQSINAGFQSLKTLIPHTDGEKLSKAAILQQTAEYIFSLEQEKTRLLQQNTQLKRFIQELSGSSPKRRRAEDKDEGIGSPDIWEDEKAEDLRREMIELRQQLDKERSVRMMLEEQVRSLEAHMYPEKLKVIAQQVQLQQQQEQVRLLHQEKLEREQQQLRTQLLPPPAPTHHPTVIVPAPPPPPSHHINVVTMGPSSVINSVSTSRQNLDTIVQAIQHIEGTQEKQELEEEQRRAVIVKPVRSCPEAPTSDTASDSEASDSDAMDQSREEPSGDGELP
# UniProt Q06481, whole entry: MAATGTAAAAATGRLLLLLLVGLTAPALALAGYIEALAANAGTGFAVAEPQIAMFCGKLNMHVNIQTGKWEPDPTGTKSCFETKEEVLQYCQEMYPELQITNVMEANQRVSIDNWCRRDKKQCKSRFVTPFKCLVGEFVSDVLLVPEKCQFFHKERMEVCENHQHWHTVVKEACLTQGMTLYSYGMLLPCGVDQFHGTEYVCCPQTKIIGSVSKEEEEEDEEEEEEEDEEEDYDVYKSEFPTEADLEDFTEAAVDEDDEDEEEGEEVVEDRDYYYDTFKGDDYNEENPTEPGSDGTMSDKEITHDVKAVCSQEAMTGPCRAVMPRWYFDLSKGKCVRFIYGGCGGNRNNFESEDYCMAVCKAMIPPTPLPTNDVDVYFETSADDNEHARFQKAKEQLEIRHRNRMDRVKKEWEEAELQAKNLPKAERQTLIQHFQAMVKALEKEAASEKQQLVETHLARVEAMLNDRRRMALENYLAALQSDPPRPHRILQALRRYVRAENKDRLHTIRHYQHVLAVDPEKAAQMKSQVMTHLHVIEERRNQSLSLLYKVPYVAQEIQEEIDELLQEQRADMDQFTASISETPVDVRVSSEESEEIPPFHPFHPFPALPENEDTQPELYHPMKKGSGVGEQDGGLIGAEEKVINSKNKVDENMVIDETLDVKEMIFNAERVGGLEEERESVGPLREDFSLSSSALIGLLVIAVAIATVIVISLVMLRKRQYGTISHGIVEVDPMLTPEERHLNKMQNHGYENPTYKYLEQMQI
# UniProt Q02078: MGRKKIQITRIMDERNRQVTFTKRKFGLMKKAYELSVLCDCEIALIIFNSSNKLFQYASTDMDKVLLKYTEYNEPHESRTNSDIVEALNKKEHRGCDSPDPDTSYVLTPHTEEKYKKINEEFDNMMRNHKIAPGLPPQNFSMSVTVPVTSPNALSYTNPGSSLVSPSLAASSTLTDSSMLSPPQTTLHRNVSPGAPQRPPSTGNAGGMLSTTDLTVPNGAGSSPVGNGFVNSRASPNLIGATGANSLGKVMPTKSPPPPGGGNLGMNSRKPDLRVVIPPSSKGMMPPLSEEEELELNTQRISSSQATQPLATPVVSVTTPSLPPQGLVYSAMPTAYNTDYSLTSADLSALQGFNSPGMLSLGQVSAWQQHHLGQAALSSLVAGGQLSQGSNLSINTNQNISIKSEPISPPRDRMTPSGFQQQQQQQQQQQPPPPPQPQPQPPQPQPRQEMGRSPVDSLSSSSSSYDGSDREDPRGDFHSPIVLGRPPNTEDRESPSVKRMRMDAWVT
# UniProt Q04759: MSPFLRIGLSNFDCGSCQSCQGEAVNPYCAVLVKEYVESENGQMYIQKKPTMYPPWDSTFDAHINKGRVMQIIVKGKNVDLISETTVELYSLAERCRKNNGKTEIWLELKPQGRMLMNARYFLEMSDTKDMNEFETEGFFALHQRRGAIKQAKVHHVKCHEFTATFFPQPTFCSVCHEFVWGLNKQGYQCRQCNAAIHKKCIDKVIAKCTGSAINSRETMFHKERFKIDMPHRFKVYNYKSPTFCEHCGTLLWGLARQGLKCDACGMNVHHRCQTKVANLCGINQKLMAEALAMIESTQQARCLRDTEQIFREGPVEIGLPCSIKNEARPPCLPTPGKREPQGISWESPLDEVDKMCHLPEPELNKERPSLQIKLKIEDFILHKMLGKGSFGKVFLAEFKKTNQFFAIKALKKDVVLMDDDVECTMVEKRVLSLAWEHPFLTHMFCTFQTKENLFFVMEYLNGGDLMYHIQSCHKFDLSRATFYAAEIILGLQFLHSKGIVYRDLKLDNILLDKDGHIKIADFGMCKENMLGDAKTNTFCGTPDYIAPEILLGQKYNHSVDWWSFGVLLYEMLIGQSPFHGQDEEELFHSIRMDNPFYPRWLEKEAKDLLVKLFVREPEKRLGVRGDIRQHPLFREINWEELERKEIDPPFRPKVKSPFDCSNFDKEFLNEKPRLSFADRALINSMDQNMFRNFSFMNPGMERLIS
# UniProt Q01581: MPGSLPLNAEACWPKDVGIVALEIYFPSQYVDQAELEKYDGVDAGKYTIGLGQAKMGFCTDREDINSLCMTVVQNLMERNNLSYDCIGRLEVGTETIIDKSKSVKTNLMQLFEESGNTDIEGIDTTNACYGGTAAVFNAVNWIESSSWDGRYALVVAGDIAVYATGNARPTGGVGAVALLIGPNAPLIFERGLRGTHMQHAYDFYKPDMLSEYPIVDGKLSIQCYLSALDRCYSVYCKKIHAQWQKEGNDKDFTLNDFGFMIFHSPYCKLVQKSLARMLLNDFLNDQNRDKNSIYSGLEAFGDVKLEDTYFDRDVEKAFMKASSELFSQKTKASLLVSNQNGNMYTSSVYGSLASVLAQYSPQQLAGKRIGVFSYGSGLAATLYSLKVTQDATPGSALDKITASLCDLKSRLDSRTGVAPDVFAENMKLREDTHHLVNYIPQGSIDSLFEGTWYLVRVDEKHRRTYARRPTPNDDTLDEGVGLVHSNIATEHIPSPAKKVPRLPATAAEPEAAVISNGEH
# UniProt P98198: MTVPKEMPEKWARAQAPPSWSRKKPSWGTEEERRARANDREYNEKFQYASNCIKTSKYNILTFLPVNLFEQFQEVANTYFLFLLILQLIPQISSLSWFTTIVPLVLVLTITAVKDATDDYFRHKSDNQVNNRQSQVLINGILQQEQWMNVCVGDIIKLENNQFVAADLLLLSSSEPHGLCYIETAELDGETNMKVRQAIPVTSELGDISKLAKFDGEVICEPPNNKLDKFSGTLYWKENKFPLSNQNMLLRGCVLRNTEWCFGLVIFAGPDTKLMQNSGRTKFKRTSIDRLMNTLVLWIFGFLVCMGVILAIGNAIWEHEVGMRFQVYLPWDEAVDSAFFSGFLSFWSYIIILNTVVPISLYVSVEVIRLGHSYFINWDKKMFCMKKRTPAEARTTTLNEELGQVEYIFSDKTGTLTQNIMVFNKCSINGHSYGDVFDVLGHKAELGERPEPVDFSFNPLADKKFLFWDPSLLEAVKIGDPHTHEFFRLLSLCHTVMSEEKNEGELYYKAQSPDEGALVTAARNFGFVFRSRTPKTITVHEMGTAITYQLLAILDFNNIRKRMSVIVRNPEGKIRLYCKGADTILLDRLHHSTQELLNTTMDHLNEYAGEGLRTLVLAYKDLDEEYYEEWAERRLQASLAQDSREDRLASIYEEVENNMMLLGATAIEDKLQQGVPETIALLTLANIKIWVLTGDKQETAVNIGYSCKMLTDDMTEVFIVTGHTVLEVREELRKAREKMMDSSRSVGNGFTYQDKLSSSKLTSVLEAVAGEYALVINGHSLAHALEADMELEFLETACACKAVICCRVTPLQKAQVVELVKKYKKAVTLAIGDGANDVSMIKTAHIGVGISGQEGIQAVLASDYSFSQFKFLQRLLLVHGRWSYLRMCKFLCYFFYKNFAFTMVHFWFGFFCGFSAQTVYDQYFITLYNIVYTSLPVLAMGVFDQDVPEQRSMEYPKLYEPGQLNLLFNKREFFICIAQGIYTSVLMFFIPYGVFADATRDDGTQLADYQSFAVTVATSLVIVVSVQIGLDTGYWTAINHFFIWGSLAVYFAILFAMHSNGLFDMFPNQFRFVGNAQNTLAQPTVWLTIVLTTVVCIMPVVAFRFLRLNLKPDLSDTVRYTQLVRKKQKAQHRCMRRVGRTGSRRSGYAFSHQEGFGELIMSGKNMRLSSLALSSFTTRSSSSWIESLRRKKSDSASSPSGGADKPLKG
# UniProt Q12965: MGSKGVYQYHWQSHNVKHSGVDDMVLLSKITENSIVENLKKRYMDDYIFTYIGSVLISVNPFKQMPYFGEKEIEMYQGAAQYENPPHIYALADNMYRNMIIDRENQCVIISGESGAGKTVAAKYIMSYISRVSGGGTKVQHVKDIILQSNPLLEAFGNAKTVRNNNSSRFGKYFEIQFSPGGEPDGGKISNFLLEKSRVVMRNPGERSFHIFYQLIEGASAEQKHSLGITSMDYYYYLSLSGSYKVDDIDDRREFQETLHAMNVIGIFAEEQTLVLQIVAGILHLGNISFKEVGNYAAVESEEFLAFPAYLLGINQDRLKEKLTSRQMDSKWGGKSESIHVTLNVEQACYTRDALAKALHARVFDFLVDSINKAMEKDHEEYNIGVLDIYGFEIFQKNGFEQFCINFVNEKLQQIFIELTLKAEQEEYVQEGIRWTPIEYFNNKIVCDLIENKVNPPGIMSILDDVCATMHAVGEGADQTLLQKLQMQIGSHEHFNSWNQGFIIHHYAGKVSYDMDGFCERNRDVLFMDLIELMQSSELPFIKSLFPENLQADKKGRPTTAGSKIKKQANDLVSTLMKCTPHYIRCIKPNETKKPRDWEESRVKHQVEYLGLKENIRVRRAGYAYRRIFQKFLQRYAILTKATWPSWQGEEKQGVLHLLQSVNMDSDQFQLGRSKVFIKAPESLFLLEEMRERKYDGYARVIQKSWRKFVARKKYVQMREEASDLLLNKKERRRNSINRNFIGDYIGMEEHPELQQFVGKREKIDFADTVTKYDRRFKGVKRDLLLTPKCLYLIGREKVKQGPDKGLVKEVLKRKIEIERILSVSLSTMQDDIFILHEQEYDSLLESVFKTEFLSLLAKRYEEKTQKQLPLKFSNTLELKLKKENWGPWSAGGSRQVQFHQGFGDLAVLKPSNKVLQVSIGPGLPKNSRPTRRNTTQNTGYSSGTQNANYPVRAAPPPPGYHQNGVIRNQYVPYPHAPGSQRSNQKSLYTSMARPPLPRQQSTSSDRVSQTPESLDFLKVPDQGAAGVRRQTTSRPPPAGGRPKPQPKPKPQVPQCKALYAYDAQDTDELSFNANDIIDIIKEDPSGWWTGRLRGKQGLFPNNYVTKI
# UniProt Q12906, whole entry: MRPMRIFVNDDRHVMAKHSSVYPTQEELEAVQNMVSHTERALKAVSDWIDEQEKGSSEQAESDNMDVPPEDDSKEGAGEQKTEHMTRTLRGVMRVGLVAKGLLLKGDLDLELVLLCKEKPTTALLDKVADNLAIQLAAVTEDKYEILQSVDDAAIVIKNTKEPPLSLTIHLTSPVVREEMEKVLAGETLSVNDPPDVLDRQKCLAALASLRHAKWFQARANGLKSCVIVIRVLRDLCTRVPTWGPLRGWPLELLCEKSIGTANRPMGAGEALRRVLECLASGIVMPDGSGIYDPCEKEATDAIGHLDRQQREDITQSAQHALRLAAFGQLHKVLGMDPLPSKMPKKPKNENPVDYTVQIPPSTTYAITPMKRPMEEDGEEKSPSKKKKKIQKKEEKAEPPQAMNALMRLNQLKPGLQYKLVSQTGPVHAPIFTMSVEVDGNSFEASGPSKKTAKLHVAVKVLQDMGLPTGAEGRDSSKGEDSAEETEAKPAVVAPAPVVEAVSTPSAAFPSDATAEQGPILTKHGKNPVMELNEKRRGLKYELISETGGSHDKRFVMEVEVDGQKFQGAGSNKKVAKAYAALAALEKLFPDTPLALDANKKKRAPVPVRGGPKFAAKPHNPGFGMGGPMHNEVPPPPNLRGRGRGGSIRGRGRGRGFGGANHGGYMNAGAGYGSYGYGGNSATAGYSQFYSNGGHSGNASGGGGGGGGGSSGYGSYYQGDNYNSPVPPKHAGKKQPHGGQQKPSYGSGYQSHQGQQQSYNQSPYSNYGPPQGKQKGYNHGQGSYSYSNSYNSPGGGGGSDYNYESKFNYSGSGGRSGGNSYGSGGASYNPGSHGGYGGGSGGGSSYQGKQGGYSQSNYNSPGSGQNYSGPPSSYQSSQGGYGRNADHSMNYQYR
# The other results are listed elsewhere or left out. The data scatter; read single values as rough.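 Many melting curves are irregular; where none melted, Tm was taken as 64 °C.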
# Compound: CCc1cnccc1C(=O)Nc1cc2c(cc1F)NC(=O)CC2
# Assay: melting temperature shift (DMSO Tm minus MBE1-treated Tm) in cellular thermal proteome profiling; higher = less thermal stabilization by MBE1 (negative = stabilized by MBE1)
# Conditions: A375
target,measurement,setting,value
ARHGAP1 (UniProt Q07960),melting temperature shift,MBE1 concentration: 100 nM,0.0122 °C
same,melting temperature shift,MBE1 concentration: 1 uM,0.366 °C
UniProt Q13015,melting temperature shift,MBE1 concentration: 100 nM,-0.0384 °C
same,melting temperature shift,MBE1 concentration: 1 uM,-0.102 °C
UniProt Q06830,melting temperature shift,MBE1 concentration: 100 nM,-0.194 °C
same,melting temperature shift,MBE1 concentration: 1 uM,-0.818 °C
ATP7A (UniProt Q04656),melting temperature shift,MBE1 concentration: 100 nM,0.672 °C
same,melting temperature shift,MBE1 concentration: 1 uM,0.568 °C
XIAP (UniProt P98170),melting temperature shift,MBE1 concentration: 100 nM,-0.762 °C
same,melting temperature shift,MBE1 concentration: 1 uM,-0.969 °C
PLAUR (UniProt Q03405),melting temperature shift,MBE1 concentration: 100 nM,-4.59 °C
same,melting temperature shift,MBE1 concentration: 1 uM,-0.36 °C
GLO1 (UniProt Q04760),melting temperature shift,MBE1 concentration: 100 nM,-1.04 °C
same,melting temperature shift,MBE1 concentration: 1 uM,-1.62 °C
MRPS22 (UniProt P82650),melting temperature shift,MBE1 concentration: 100 nM,-0.391 °C
same,melting temperature shift,MBE1 concentration: 1 uM,0.167 °C
TJP1 (UniProt Q07157),melting temperature shift,MBE1 concentration: 100 nM,0.36 °C
same,melting temperature shift,MBE1 concentration: 1 uM,-0.0794 °C
TFAP4 (UniProt Q01664),melting temperature shift,MBE1 concentration: 100 nM,-2.07 °C
same,melting temperature shift,MBE1 concentration: 1 uM,-0.946 °C
APLP2 (UniProt Q06481),melting temperature shift,MBE1 concentration: 100 nM,-0.58 °C
same,melting temperature shift,MBE1 concentration: 1 uM,-0.458 °C
UniProt Q02078,melting temperature shift,MBE1 concentration: 100 nM,-0.362 °C
same,melting temperature shift,MBE1 concentration: 1 uM,-0.423 °C
UniProt P98088,melting temperature shift,MBE1 concentration: 100 nM,-3.84 °C
same,melting temperature shift,MBE1 concentration: 1 uM,-1.61 °C
PRKCQ (UniProt Q04759),melting temperature shift,MBE1 concentration: 100 nM,-0.427 °C
same,melting temperature shift,MBE1 concentration: 1 uM,-0.14 °C
HMGCS1 (UniProt Q01581),melting temperature shift,MBE1 concentration: 100 nM,-0.63 °C
same,melting temperature shift,MBE1 concentration: 1 uM,0.402 °C
MGAT2 (UniProt Q10469),melting temperature shift,MBE1 concentration: 100 nM,-0.469 °C
same,melting temperature shift,MBE1 concentration: 1 uM,0.208 °C
UniProt P98198,melting temperature shift,MBE1 concentration: 100 nM,1.34 °C
same,melting temperature shift,MBE1 concentration: 1 uM,0.783 °C
MAP4K2 (UniProt Q12851),melting temperature shift,MBE1 concentration: 100 nM,-0.0977 °C
same,melting temperature shift,MBE1 concentration: 1 uM,-1.7 °C
UniProt Q08426,melting temperature shift,MBE1 concentration: 100 nM,0.216 °C
same,melting temperature shift,MBE1 concentration: 1 uM,0.637 °C
GTF2I (UniProt P78347),melting temperature shift,MBE1 concentration: 100 nM,0.115 °C
same,melting temperature shift,MBE1 concentration: 1 uM,-0.179 °C
GTF3C1 (UniProt Q12789),melting temperature shift,MBE1 concentration: 100 nM,-0.218 °C
same,melting temperature shift,MBE1 concentration: 1 uM,-0.532 °C
MYO1E (UniProt Q12965),melting temperature shift,MBE1 concentration: 100 nM,0.556 °C
same,melting temperature shift,MBE1 concentration: 1 uM,0.147 °C
CHD3 (UniProt Q12873),melting temperature shift,MBE1 concentration: 100 nM,-0.224 °C
same,melting temperature shift,MBE1 concentration: 1 uM,0.141 °C
UniProt Q03164,melting temperature shift,MBE1 concentration: 100 nM,-0.301 °C
same,melting temperature shift,MBE1 concentration: 1 uM,-0.455 °C
BPTF (UniProt Q12830),melting temperature shift,MBE1 concentration: 100 nM,-0.711 °C
same,melting temperature shift,MBE1 concentration: 1 uM,-0.282 °C
ILF3 (UniProt Q12906),melting temperature shift,MBE1 concentration: 100 nM,-0.916 °C
same,melting temperature shift,MBE1 concentration: 1 uM,-0.916 °C

# For reference, part of the list above:
target,measurement,setting,value
HMGCS1 (UniProt Q01581),melting temperature shift,MBE1 concentration: 1 uM,0.402 °C
MGAT2 (UniProt Q10469),melting temperature shift,MBE1 concentration: 100 nM,-0.469 °C
same,melting temperature shift,MBE1 concentration: 1 uM,0.208 °C
UniProt P98198,melting temperature shift,MBE1 concentration: 100 nM,1.34 °C
